# Experimental data taken from the supplement of paper PMC8728848.
# Some of the results follow.
# B1: Mermaid1 (Stilbonema majum) (protein)
# chain: MGSSHHHHHHSSGLVPRGSHMAASGWLRSPQGTVVKLYRRSLSWSKADEFCKDVDGRLVVDRTADMHLFLIKNVLKEKKSRVWVGLRRTAPHSRTWIWSDGTRQNEDDLDANLWLRDEPNDAAGEEECALFMYSPWEKAWGLNDYLCRGGCRSYQFICEKWIR
# Assays:
# Test in all cases: glycan array binding signal (z-score within array); higher = stronger binding
# Details in all cases: glycan notation: IUPAC condensed, linker removed
# [1] = molecular target: Gal3S(b1-4)Glc
# In short: (§1)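 The Consortium for Functional Glycomics database supplied 3228 glycan arrays, of which those lacking an available protein sequence were dropped. The binding signal, a within-array Z-score, was averaged across arrays of the same protein sequence and across linkers. Negative scores can be read as non-binding.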
# [2] = molecular target: Gal3S(b1-4)Glc6S
# In short: as §1
# [3] = molecular target: Gal3S(b1-4)GlcNAc
# In short: as §1
# [4] = molecular target: Gal3S(b1-4)[Fuc(a1-3)]Glc6S
# In short: as §1
# [5] = molecular target: Gal3S(b1-4)[Fuc(a1-3)]GlcNAc
# In short: as §1
# [6] = molecular target: Gal3S(b1-4)[Fuc(a1-3)]GlcNAc6S
# In short: as §1
# [7] = molecular target: Gal3S4S(b1-4)GlcNAc
# In short: as §1
# [8] = molecular target: Gal3S6S(b1-4)GlcNAc
# In short: as §1
# [9] = molecular target: Gal3S6S(b1-4)GlcNAc6S
# In short: as §1
# [10] = molecular target: Gal4S(b1-4)GlcNAc
# In short: as §1
# [11] = molecular target: Gal4S6S(b1-4)GlcNAc
# In short: as §1
# [12] = molecular target: Gal6P(b1-4)GlcNAc
# In short: as §1
# [13] = molecular target: Gal6S(b1-3)GlcNAc
# In short: as §1
# [14] = molecular target: Gal6S(b1-3)GlcNAc6S
# In short: as §1
# [15] = molecular target: Gal6S(b1-4)Glc
# In short: as §1
# [16] = molecular target: Gal6S(b1-4)Glc6S
# In short: as §1
# [17] = molecular target: Gal6S(b1-4)GlcNAc
# In short: as §1
# [18] = molecular target: Gal6S(b1-4)GlcNAc6S
# In short: as §1
# [19] = molecular target: GalNAc(a1-3)Gal
# In short: as §1
# [20] = molecular target: GalNAc(a1-3)GalNAc
# In short: as §1
# [21] = molecular target: GalNAc(a1-3)GalNAc(b1-3)Gal(a1-4)Gal(b1-4)Glc
# In short: as §1
# [22] = molecular target: GalNAc(a1-3)GalNAc(b1-3)Gal(a1-4)Gal(b1-4)GlcNAc
# In short: as §1
# [23] = molecular target: GalNAc(b1-3)Gal
# In short: as §1
# [24] = molecular target: GalNAc(b1-3)Gal(a1-4)Gal(b1-4)GlcNAc
# In short: as §1
# [25] = molecular target: GalNAc(b1-3)Gal(a1-4)Gal(b1-4)GlcNAc(b1-3)Gal(b1-4)Glc
# In short: as §1
# [26] = molecular target: GalNAc(b1-3)Gal(a1-6)Gal(b1-4)Glc
# In short: as §1
# [27] = molecular target: GalNAc(b1-3)GalNAc
# In short: as §1
# [28] = molecular target: GalNAc(b1-3)GlcNAc
# In short: as §1
# [29] = molecular target: GalNAc(b1-4)Gal(b1-4)Glc
# In short: as §1
# [30] = molecular target: GalNAc(b1-4)GlcNAc
# In short: as §1
# [31] = molecular target: GalNAc(b1-4)GlcNAc(b1-2)Man
# In short: as §1
# [32] = molecular target: GalNAc(b1-4)GlcNAc(b1-2)Man(a1-3)[GalNAc(b1-4)GlcNAc(b1-2)Man(a1-6)]Man(b1-4)GlcNAc(b1-4)GlcNAc
# In short: as §1
# [33] = molecular target: GalNAc(b1-4)GlcNAc(b1-3)GalNAc(b1-4)GlcNAc
# In short: as §1
# [34] = molecular target: GalNAc(b1-4)GlcNAc6S
# In short: as §1
# [35] = molecular target: GalNAc(b1-6)GalNAc
# In short: as §1
# [36] = molecular target: GalNAc3S(b1-4)GlcNAc
# In short: as §1
# [37] = molecular target: GalNAc3S(b1-4)GlcNAc3S
# In short: as §1
# [38] = molecular target: GalNAc3S(b1-4)[Fuc(a1-3)]GlcNAc
# In short: as §1
# [39] = molecular target: GalNAc4S6S(b1-4)GlcNAc
# In short: as §1
# [40] = molecular target: GalNAc6S(b1-4)GlcNAc
# In short: as §1
# [41] = molecular target: Glc(a1-4)Glc
# In short: as §1
# [42] = molecular target: Glc(a1-4)Glc(a1-4)Glc(a1-4)Glc
# In short: as §1
# [43] = molecular target: Glc(a1-6)Glc(a1-6)Glc
# In short: as §1
# [44] = molecular target: Glc(a1-6)Glc(a1-6)Glc(a1-6)Glc
# In short: as §1
# [45] = molecular target: Glc(b1-4)Glc
# In short: as §1
binder,measurement,setting,value
B1,glycan array binding signal (z-score),[1],0.598
same,glycan array binding signal (z-score),[2],0.205
same,glycan array binding signal (z-score),[3],0.353
same,glycan array binding signal (z-score),[4],1.84
same,glycan array binding signal (z-score),[5],0.074
same,glycan array binding signal (z-score),[6],0.091
same,glycan array binding signal (z-score),[7],-0.465
same,glycan array binding signal (z-score),[8],0.646
same,glycan array binding signal (z-score),[9],-0.524
same,glycan array binding signal (z-score),[10],1.03
same,glycan array binding signal (z-score),[11],0.121
same,glycan array binding signal (z-score),[12],-0.911
same,glycan array binding signal (z-score),[13],-0.891
same,glycan array binding signal (z-score),[14],0.285
same,glycan array binding signal (z-score),[15],0.101
same,glycan array binding signal (z-score),[16],0.986
same,glycan array binding signal (z-score),[17],-0.719
same,glycan array binding signal (z-score),[18],0.081
same,glycan array binding signal (z-score),[19],-0.641
same,glycan array binding signal (z-score),[20],-0.917
same,glycan array binding signal (z-score),[21],-0.428
same,glycan array binding signal (z-score),[22],-0.41
same,glycan array binding signal (z-score),[23],-0.447
same,glycan array binding signal (z-score),[24],-0.239
same,glycan array binding signal (z-score),[25],-0.026
same,glycan array binding signal (z-score),[26],-0.59
same,glycan array binding signal (z-score),[27],-0.091
same,glycan array binding signal (z-score),[28],-0.267
same,glycan array binding signal (z-score),[29],1.51
same,glycan array binding signal (z-score),[30],0.87
same,glycan array binding signal (z-score),[31],3.48
same,glycan array binding signal (z-score),[32],-0.923
same,glycan array binding signal (z-score),[33],1.28
same,glycan array binding signal (z-score),[34],2.33
same,glycan array binding signal (z-score),[35],-0.356
same,glycan array binding signal (z-score),[36],-0.812
same,glycan array binding signal (z-score),[37],-0.766
same,glycan array binding signal (z-score),[38],0.714
same,glycan array binding signal (z-score),[39],-0.9
same,glycan array binding signal (z-score),[40],0.654
same,glycan array binding signal (z-score),[41],0.065
same,glycan array binding signal (z-score),[42],0.253
same,glycan array binding signal (z-score),[43],-0.31
same,glycan array binding signal (z-score),[44],1.52
same,glycan array binding signal (z-score),[45],0.159

# A run of entries from further up, for reference:
binder,measurement,setting,value
B1,glycan array binding signal (z-score),[24],-0.239
same,glycan array binding signal (z-score),[25],-0.026
